The record followed here is patent US20250283871A1, “COMPOSITIONS AND METHODS FOR MODULATING THE INTERACTION BETWEEN SS18-SSX FUSION ONCOPROTEIN AND NUCLEOSOMES” (Dana-Farber Cancer Institute, Inc., priority 2020, published 2025).

First the molecules themselves.
B1: MTX2 (protein, UniProt O75431 2-263, looked up)
Metaxin-2: SLVAEAFVSQIAAAEPWPENATLYQQLKGEQILLSDNAASLAVQAFLQMCNLPIKVVCRANAEYMSPSGKVPFIHVGNQVVSELGPIVQFVKAKGHSLSDGLEEVQKAEMKAYMELVNNMLLTAELYLQWCDEATVGEITHARYGSPYPWPLNHILAYQKQWEVKRKMKAIGWGKKTLDQVLEDVDQCCQALSQRLGTQPYFFNKQPTELDALVFGHLYTILTTQLTNDELSEKVKNYSNLLAFCRRIEQHYFEDRGKGRLS
B2: DNAJB12 (protein, UniProt Q9NXW2 1-375, looked up)
DnaJ homolog subfamily B …: MESNKDEAERCISIALKAIQSNQPDRALRFLEKAQRLYPTPRVRALIESLNQKPQTAGDQPPPTDTTHATHRKAGGTDAPSANGEAGGESTKGYTAEQVAAVKRVKQCKDYYEILGVSRGASDEDLKKAYRRLALKFHPDKNHAPGATEAFKAIGTAYAVLSNPEKRKQYDQFGDDKSQAARHGHGHGDFHRGFEADISPEDLFNMFFGGGFPSSNVHVYSNGRMRYTYQQRQDRRDNQGDGGLGVFVQLMPILILILVSALSQLMVSSPPYSLSPRPSVGHIHRRVTDHLGVVYYVGDTFSEEYTGSSLKTVERNVEDDYIANLRNNCWKEKQQKEGLLYRARYFGDTDMYHRAQKMGTPSCSRLSEVQASLHG
B3: MCU (protein, UniProt Q8NE86 51-351, looked up)
Calcium uniporter protein, …: VHQRIASWQNLGAVYCSTVVPSDDVTVVYQNGLPVISVRLPSRRERCQFTLKPISDSVGVFLRQLQEEDRGIDRVAIYSPDGVRVAASTGIDLLLLDDFKLVINDLTYHVRPPKRDLLSHENAATLNDVKTLVQQLYTTLCIEQHQLNKERELIERLEDLKEQLAPLEKVRIEISRKAEKRTTLVLWGGLAYMATQFGILARLTWWEYSWDIMEPVTYFITYGSAMAMYAYFVMTRQEYVYPEARDRQYLLFFHKGAKKSRFDLEKYNQLKDAIAQAEMDLKRLRDPLQVHLPLRQIGEKD
B4: HS2ST1 (protein, UniProt Q7LGA3 1-356, looked up)
Heparan sulfate …: MGLLRIMMPPKLQLLAVVAFAVAMLFLENQIQKLEESRSKLERAIARHEVREIEQRHTMDGPRQDATLDEEEDMVIIYNRVPKTASTSFTNIAYDLCAKNKYHVLHINTTKNNPVMSLQDQVRFVKNITSWKEMKPGFYHGHVSYLDFAKFGVKKKPIYINVIRDPIERLVSYYYFLRFGDDYRPGLRRRKQGDKKTFDECVAEGGSDCAPEKLWLQIPFFCGHSSECWNVGSRWAMDQAKYNLINEYFLVGVTEELEDFIMLLEAALPRFFRGATELYRTGKKSHLRKTTEKKLPTKQTIAKLQQSDIWKMENEFYEFALEQFQFIRAHAVREKDGDLYILAQNFFYEKIYPKSN
B5: CCDC157 (protein, UniProt Q569K6 1-752, looked up)
Coiled-coil domain-containing …: MAHLLGSQACMESLRTDLTDLQGAIVDVFSRAGPVRFPSWKFPDRMACDLDMVALLEHYDHVPGDPEFTQLSHAVLLELVIDRLLLLLQSCMSYLENLGSEQMMPPAQAAGPCMSVGLTVRRFWDSLLRLGTLHQQPLPQKGANQRETPTSKPTTKGEPARSPEYLTTKLIKPSSPVLGLPQTCQEPESIPVRASLQFPATTFKNTRSVHSQTIETALVPCDACASVQGSLQKVGKVVISLCQSQNLPSSLGQFQQLVQDSMGLRPLPAATVGRWAAEQRKDLTRLSKHVEALRAQLEEAEGQKDGLRKQAGKLEQALKQEQGARRRQAEEDEQCLSEWEHDKQQLLTETSDLKTKMATLERELKQQRESTQAVEAKAQQLQEEGERRAAAERQVQQLEEQVQQLEAQVQLLVGRLEGAGQQVCWASTELDKEKARVDSMVRHQESLQAKQRALLKQLDSLDQEREELRGSLDEAEAQRARVEEQLQSEREQGQCQLRAQQELLQSLQREKQGLEQATTDLRLTILELERELEELKERERLLVAFPDLHRPTETQIHGGRSSSVESQITCPTDSGNVTDHMERQVQSNDIRIRVLQEENGRLQSMLSKIREVAQQGGLKLIPQDRLWSPSSKGTQGATPPVQAKSTSPGPLGRQHLPSSRTGRTLLGQPCTSPPRQPCTSPPRQPCTSPPRQPCTSPSRQPCSQPSKSLLEGVTHLDTCTQNPIKVLVRLRKRLSPGRGQASSAHQPQERPM
B6: DARS2 (protein, UniProt Q6PI48 48-645, looked up)
Aspartate--tRNA ligase, …: VVRTNTCGELRSSHLGQEVTLCGWIQYRRQNTFLVLRDFDGLVQVIIPQDESAASVKKILCEAPVESVVQVSGTVISRPAGQENPKMPTGEIEIKVKTAELLNACKKLPFEIKNFVKKTEALRLQYRYLDLRSFQMQYNLRLRSQMVMKMREYLCNLHGFVDIETPTLFKRTPGGAKEFLVPSREPGKFYSLPQSPQQFKQLLMVGGLDRYFQVARCYRDEGSRPDRQPEFTQIDIEMSFVDQTGIQSLIEGLLQYSWPNDKDPVVVPFPTMTFAEVLATYGTDKPDTRFGMKIIDISDVFRNTEIGFLQDALSKPHGTVKAICIPEGAKYLKRKDIESIRNFAADHFNQEILPVFLNANRNWNSPVANFIMESQRLELIRLMETQEEDVVLLTAGEHNKACSLLGKLRLECADLLETRGVVLRDPTLFSFLWVVDFPLFLPKEENPRELESAHHPFTAPHPSDIHLLYTEPKKARSQHYDLVLNGNEIGGGSIRIHNAELQRYILATLLKEDVKMLSHLLQALDYGAPPHGGIALGLDRLICLVTGSPSIRDVIAFPKSFRGHDLMSNTPDSVPPEELKPYHIRVSKPTDSKAERAH
B7: MPV17 (protein, UniProt P39210 1-176, looked up)
Mitochondrial inner membrane …: MALWRAYQRALAAHPWKVQVLTAGSLMGLGDIISQQLVERRGLQEHQRGRTLTMVSLGCGFVGPVVGGWYKVLDRFIPGTTKVDALKKMLLDQGGFAPCFLGCFLPLVGALNGLSAQDNWAKLQRDYPDALITNYYLWPAVQLANFYLVPLHYRLAVVQCVAVIWNSYLSWKAHRL
B8: DYM (protein, UniProt Q7RTS9 2-669, looked up)
Dymeclin: GSNSSRIGDLPKNEYLKKLSGTESISENDPFWNQLLSFSFPAPTSSSELKLLEEATISVCRSLVENNPRTGNLGALIKVFLSRTKELKLSAECQNHIFIWQTHNALFIICCLLKVFICQMSEEELQLHFTYEEKSPGNYSSDSEDLLEELLCCLMQLITDIPLLDITYEISVEAISTMVVFLSCQLFHKEVLRQSISHKYLMRGPCLPYTSKLVKTLLYNFIRQEKPPPPGAHVFPQQSDGGGLLYGLASGVATGLWTVFTLGGVGSKAAASPELSSPLANQSLLLLLVLANLTDASDAPNPYRQAIMSFKNTQDSSPFPSSIPHAFQINFNSLYTALCEQQTSDQATLLLYTLLHQNSNIRTYMLARTDMENLVLPILEILYHVEERNSHHVYMALIILLILTEDDGFNRSIHEVILKNITWYSERVLTEISLGSLLILVVIRTIQYNMTRTRDKYLHTNCLAALANMSAQFRSLHQYAAQRIISLFSLLSKKHNKVLEQATQSLRGSLSSNDVPLPDYAQDLNVIEEVIRMMLEIINSCLTNSLHHNPNLVYALLYKRDLFEQFRTHPSFQDIMQNIDLVISFFSSRLLQAGAELSVERVLEIIKQGVVALPKDRLKKFPELKFKYVEEEQPEEFFIPYVWSLVYNSAVGLYWNPQDIQLFTMDSD

The data set relates to BAF complex subunits and histone proteins. The data set is described as follows: Mass spectrometry proteomics of purified HA-SS18 WT and HA-SS18-SSX1 complexes (Tables 5A-5E). Also on record: species or system human. To be noted: HA-SS18WT_NE_peptides: proteins co-purified with HA-SS18 WT from nuclear extract (NE), HEK-293T.
For the molecule B1, the “Total (peptides)” value amounted to 1 and the “Unique (peptides)” value amounted to 1.
For the molecule B2, the “Total (peptides)” value is given as 1 and the “Unique (peptides)” value was 1.
In the case of B3, the “Total (peptides)” value is 1 and the “Unique (peptides)” value came to 1.
For B4, the “Total (peptides)” value stood at 1 and the “Unique (peptides)” value was determined as 1.
Regarding B5, the “Total (peptides)” value is 2 and the “Unique (peptides)” value was 1.
For B6, in that order: 2 and 2.
For B7, in that order: 1 and 1.
In the case of B8, the “Total (peptides)” value was determined as 2 and the “Unique (peptides)” value stood at 1.
